# Hit rate of the full screen: of about 320,000 compounds, about 22,000 (6.9%) were called active. The shares of active, inactive and inconclusive entries below differ from those in the screen. Calls follow the shape of the dose curve; as a rule, active = well fitted inhibition curve with a large enough effect; inconclusive = small, poorly fitted or top-dose-only effect, or another doubt; inactive = no such curve, though single readings can be large or run the other way. Potencies of inconclusive entries are doubtful fits and often do not repeat.
# Assay: Primary qHTS for delayed death inhibitors of the malarial parasite plastid, 96 hour incubation
# Settings: P. falciparum luciferase reporter growth; series mostly up to 28.7 µM; activity change, negative = inhibition: at the top concentration
# Summary of the method: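 P. falciparum expressing integrated firefly luciferase, in erythrocytes at 2% hematocrit, 0.05% parasitemia, incubated with compounds 96 h at 37 C, 5% CO2. Growth inhibition read as loss of luminescence; two-generation exposure targets delayed-death apicoplast inhibitors.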
# % is scaled to controls: 0 for no effect and ±100 for the full control effect; potency is read from the fitted curve at half-maximal effect.
Compound,Potency,"activity change, negative = inhibition"
CC(C)CCOc1ccc(/C=C2\CCn3c2nc2cc(C(=O)O)ccc2c3=O)cc1,"inconclusive: 2.62 µM [inhibitor, full curve]",–
O=C(CSc1ccc2nnc(-c3ccccn3)n2n1)Nc1ccc2c(c1)OCCO2,"inconclusive: 4.15 µM [inhibitor, partial curve, poor fit]",–
Cc1[nH]c2ccccc2c1C(=O)CCl,active: 10.4 µM,–
COc1cc(C2C(C#N)=C(N)Oc3cc(N(C)C)ccc32)cc2c1OCO2 (stereo not given),–,inactive: -8.61%
CC(C)NS(=O)(=O)c1ccc(CCC(=O)NCc2ccc3c(c2)OCO3)cc1,"inconclusive: 9.28 µM [inhibitor, partial curve, poor fit]",–
Cc1ccc(C(=O)N2CCCC(CCC(=O)NCc3ccccc3F)C2)cn1 (stereo not given),–,inactive: 3.05%
O=C(CN1CCN(S(=O)(=O)c2ccc(Br)s2)CC1)N1CCCCC1,"inconclusive: 10.4 µM [inhibitor, single point]",–
CN1C(=O)Cc2cc(S(=O)(=O)N3CCN(c4cccc(C(F)(F)F)c4)CC3)ccc21,"inconclusive: 18.5 µM [inhibitor, partial curve, poor fit]",–
COc1ccccc1CN1C(=O)CCC1(C)C(=O)NCc1cccnc1 (stereo not given),"inconclusive: 2.62 µM [inhibitor, full curve]",–
CCOC(=O)c1ccc(-n2c(CN(CC)CC)nc3ccc([N+](=O)[O-])cc3c2=O)cc1,"inconclusive: 0.0117 µM [inhibitor, full curve, poor fit]",–
COc1ccccc1OCC(O)CN1CCN(C(=O)c2ccccc2)CC1 (stereo not given),"inconclusive: 18.5 µM [inhibitor, single point]",–
CSc1ccc(NC(=O)N2CC=C(n3c(=O)[nH]c4ccccc43)CC2)cc1,"inconclusive: 18.5 µM [inhibitor, single point]",–
CCNC(=O)NC1(C(=O)Nc2ccc3c(c2)CCC3)CCCCC1,active: 2.94 µM,–
Cc1cc(C)nc(SCc2nnc(SCC(=O)Nc3c(C)cccc3C)o2)n1,"inconclusive: 18.5 µM [inhibitor, single point]",–
CCOc1ccc(NC(=O)CCN2C(=O)c3cccc([N+](=O)[O-])c3C2=O)cc1,"inconclusive: 10.4 µM [inhibitor, single point]",–
Cc1ccn2c(-c3n[nH]c(=S)n3Cc3ccccc3)c(C)nc2c1,"inconclusive: 11.7 µM [inhibitor, single point]",–
COc1ccc(/C=C/C(=O)NC2CCCCC2C)cc1 (stereo not given),"inconclusive: 18.5 µM [inhibitor, single point]",–
COC(=O)c1ccc(C23CC4(C2)[C@H](CN(Cc2cccnc2)[C@@H]4c2ccccc2)C3c2ccc(C(F)(F)F)cc2)cc1 (stereo not given in full),active: 3.29 µM,–
CCCCCOC(=O)Cc1c(C)nc(-c2ccccc2)[nH]c1=O,"inconclusive: 0.415 µM [inhibitor, partial curve, poor fit]",–
Cc1c(OCC(F)(F)F)ccnc1CSc1nc2ccccc2[nH]1,"inconclusive: 0.294 µM [inhibitor, full curve, poor fit]",–
CCOC(=O)c1c(C)n(OCc2ccccc2)c2ccc3nonc3c12,"inconclusive: 18.5 µM [inhibitor, single point]",–
CC(NCCc1ccc(S(N)(=O)=O)cc1)C(=O)NCc1ccccc1 (stereo not given),–,inactive: -7.88%

Compound,Potency,"activity change, negative = inhibition"
COc1ccc(S(=O)(=O)N2CCOC23CCN(S(=O)(=O)c2c(C)cc(C)cc2C)CC3)cc1,"inconclusive: 10.4 µM [inhibitor, single point]",–
Cc1csc(SCC(=O)N(c2ccccc2)C(C)C)n1,"inconclusive: 13.1 µM [inhibitor, single point]",–
CCOC(=O)c1c(S(=O)(=O)NCC(=O)Nc2cc(C)ccc2OC)c(C)n(C)c1C,active: 9.28 µM,–
O=C1C(=O)N(CCCN2CCOCC2)C(c2ccc(Cl)cc2)/C1=C(/O)c1ccc(F)cc1 (stereo not given),"inconclusive: 4.15 µM [inhibitor, single point]",–
C=CCn1ccc(=NC=C(C#N)C#N)c2ccccc21,"inconclusive: 2.33 µM [inhibitor, full curve]",–
O=C(NN1C(=O)C2C3C=CC(C4CC34)C2C1=O)c1ccc(Cl)c(Cl)c1 (stereo not given),"inconclusive: 10.4 µM [inhibitor, single point]",–
O=C(C1=C(O)C(=O)N(CCN2CCOCC2)C1c1ccc(Br)cc1)c1cc2ccccc2o1 (stereo not given),"inconclusive: 18.5 µM [inhibitor, single point]",–
CCOc1ccccc1NC(=O)N1CCC(NC(=O)C2CCCCC2)CC1,"inconclusive: 2.33 µM [inhibitor, full curve]",–
CC1CC(C)CN(S(=O)(=O)c2ccc3c(c2)NC(=O)C(C)C(=O)N3)C1 (stereo not given),–,inactive: -29.2%
Cc1cccn2c(=O)c(C=NCCO)c(Nc3ccc(Cl)cc3)nc12,–,inactive: 98.4%
Cc1c(NC(=O)c2cccc(NC(=O)COc3ccccc3C#N)c2)c(=O)n(-c2ccccc2)n1C,–,inactive: -7.15%
CCCNC(=O)C1CCC(CNS(=O)(=O)c2ccc3c(c2)N(C(C)=O)CCO3)CC1 (stereo not given),"inconclusive: 2.62 µM [inhibitor, partial curve, poor fit]",–
CCCCOC(=O)/C(=C/C=C/c1ccccc1)NC(=O)c1ccccc1,–,inactive: -21.8%
COc1ccccc1CNC(=O)C1CCC(CNC(=O)[C@@H]2Cc3ccccc3CN2)CC1 (stereo not given in full),"inconclusive: 16.5 µM [inhibitor, partial curve, poor fit]",–
O=C(N/N=C/c1cccc(Cl)c1)C1CCCC1,"inconclusive: 20.8 µM [inhibitor, single point]",–
CC(=O)N/C(=C\c1ccc(F)cc1)C(=O)OCc1ccccc1,"inconclusive: 0.586 µM [inhibitor, full curve, poor fit]",–
COc1ccc(C(=O)NCC(c2ccc(F)cc2)N2CCOCC2)cc1S(=O)(=O)N1CCCC1 (stereo not given),active: 10.4 µM,–
CCn1c(SCC(=O)N2CCN(c3ccc(Cl)cc3)CC2)nc2ccccc2c1=O,"inconclusive: 2.08 µM [inhibitor, full curve]",–
CC(=O)c1cccc(S(=O)(=O)Nc2cc(C(F)(F)F)ccc2N2CCOCC2)c1,"inconclusive: 4.15 µM [inhibitor, partial curve, poor fit]",–
CN1CCN(NC(=S)NC2CCCCC2)CC1,"inconclusive: 0.0928 µM [inhibitor, full curve, poor fit]",–
N=c1ccn2c(n1)O[C@H]1[C@H](O)[C@@H](CO)O[C@H]12,inactive,–
COC(=O)c1ccc(C(=O)OC)c(NC(=O)CN(C)Cc2cccc(Cl)c2Cl)c1,"inconclusive: 11.7 µM [inhibitor, partial curve, poor fit]",–

Compound,Potency,"activity change, negative = inhibition"
Cc1cc(C(=O)Nc2ccc(C)c(S(=O)(=O)N3CCOCC3)c2)c(C)o1,–,inactive: 31.2%
CC(=O)c1ccc(S(=O)(=O)Nc2ccc(-c3ccc4nncn4n3)cc2)cc1,"inconclusive: 2.62 µM [inhibitor, single point]",–
CCn1ccc(C(=O)Nc2ccc(Cl)cn2)n1,–,inactive: -18.1%
COc1ccc(CC(=O)N2CCN(c3ccc(F)cc3)CC2)cc1,"inconclusive: 11.7 µM [inhibitor, partial curve, poor fit]",–
CCOC(=O)c1ccc(S(=O)(=O)N2CCN(CC(O)COc3cccc(C(C)=O)c3)CC2)cc1 (stereo not given),–,inactive: 2.75%
O=C(CN1C(=O)S/C(=C\c2ccccc2F)C1=O)NC1C=CS(=O)(=O)C1 (stereo not given),"inconclusive: 0.738 µM [inhibitor, full curve, poor fit]",–
N/C(=N/[N+](=O)[O-])N1CCN(C(=O)Oc2ccc([N+](=O)[O-])cc2)CC1,"inconclusive: 9.28 µM [inhibitor, partial curve, poor fit]",–
CN(Cc1cccc(F)c1)C(=O)CN1CCN(S(=O)(=O)c2ccc3c(c2)OCCCO3)CC1,"inconclusive: 10.4 µM [inhibitor, partial curve]",–
COc1ccc(-c2c(C#N)c(N)nc3c2CCc2ccccc2-3)cc1OC,active: 7.38 µM,–
N#CCCn1cc(/C=C2\NC(=S)N(c3ccccc3)C2=O)c(-c2ccc(F)cc2)n1,–,inactive: -0.597%
Cc1nc2sc(C(c3cccs3)N3CC(C)CC(C)C3)c(O)n2n1 (stereo not given),"inconclusive: 18.5 µM [inhibitor, single point]",–
COc1ccc(CN(C)C(=O)CNC(=O)c2ccc3ccccc3c2)c(OC)c1,"inconclusive: 10.4 µM [inhibitor, single point]",–
CCS(=O)(=O)N1CCN(C(=O)c2cccc(OC)c2)CC1,"inconclusive: 9.28 µM [inhibitor, partial curve]",–
Cc1sc2ncnc(N3CCC(C(=O)Nc4ccc(C#N)cc4)CC3)c2c1C,"inconclusive: 18.5 µM [inhibitor, single point]",–
CCN(CC)C(=O)CSc1nc2cc3c(cc2c(=O)n1CCCCCC(=O)NCc1ccc(OC)cc1)OCO3,–,inactive: -4.51%
CC(=O)c1ccc(N2CCN(c3ccc(S(=O)(=O)N4CCN(C)CC4)cn3)CC2)cc1,"inconclusive: 3.29 µM [inhibitor, partial curve]",–
CC(=O)Nc1ccc(C(=O)CSc2nnc3scc(-c4ccccc4)n23)cc1,"inconclusive: 0.117 µM [inhibitor, full curve, poor fit]",–
Cc1c(F)cccc1NC(=O)CCCCCC1NC(=O)NC1C (stereo not given),–,inactive: -17.1%
O=C(Cn1cnc2ccccc21)Nc1cccc(S(=O)(=O)N2CCCC2)c1,"inconclusive: 18.5 µM [inhibitor, single point]",–
Cc1cc(NC(=O)CSc2nnc(C)c(=O)[nH]2)no1,"inconclusive: 10.4 µM [inhibitor, partial curve, poor fit]",–
COC(=O)C1(C)NC(c2ccc(C)cc2)C2C(=O)N(c3ccc(F)cc3)C(=O)C21 (stereo not given),"inconclusive: 11.7 µM [inhibitor, single point]",–

# Part of the list above, with bars between the fields.
Compound | Potency | activity change, negative = inhibition
CCn1ccc(C(=O)Nc2ccc(Cl)cn2)n1 | – | inactive: -18.1%
COc1ccc(CC(=O)N2CCN(c3ccc(F)cc3)CC2)cc1 | inconclusive: 11.7 µM [inhibitor, partial curve, poor fit] | –
CCOC(=O)c1ccc(S(=O)(=O)N2CCN(CC(O)COc3cccc(C(C)=O)c3)CC2)cc1 (stereo not given) | – | inactive: 2.75%
O=C(CN1C(=O)S/C(=C\c2ccccc2F)C1=O)NC1C=CS(=O)(=O)C1 (stereo not given) | inconclusive: 0.738 µM [inhibitor, full curve, poor fit] | –
N/C(=N/[N+](=O)[O-])N1CCN(C(=O)Oc2ccc([N+](=O)[O-])cc2)CC1 | inconclusive: 9.28 µM [inhibitor, partial curve, poor fit] | –
CN(Cc1cccc(F)c1)C(=O)CN1CCN(S(=O)(=O)c2ccc3c(c2)OCCCO3)CC1 | inconclusive: 10.4 µM [inhibitor, partial curve] | –
